Measured values reported in publication doi:10.1101/2022.10.10.511565.

Molecular target: T1, Lon^TRAP-Twin-Strep-tag (Lon S674A active-site mutant) (C. crescentus) (UniProt B8GX12)
T1 sequence: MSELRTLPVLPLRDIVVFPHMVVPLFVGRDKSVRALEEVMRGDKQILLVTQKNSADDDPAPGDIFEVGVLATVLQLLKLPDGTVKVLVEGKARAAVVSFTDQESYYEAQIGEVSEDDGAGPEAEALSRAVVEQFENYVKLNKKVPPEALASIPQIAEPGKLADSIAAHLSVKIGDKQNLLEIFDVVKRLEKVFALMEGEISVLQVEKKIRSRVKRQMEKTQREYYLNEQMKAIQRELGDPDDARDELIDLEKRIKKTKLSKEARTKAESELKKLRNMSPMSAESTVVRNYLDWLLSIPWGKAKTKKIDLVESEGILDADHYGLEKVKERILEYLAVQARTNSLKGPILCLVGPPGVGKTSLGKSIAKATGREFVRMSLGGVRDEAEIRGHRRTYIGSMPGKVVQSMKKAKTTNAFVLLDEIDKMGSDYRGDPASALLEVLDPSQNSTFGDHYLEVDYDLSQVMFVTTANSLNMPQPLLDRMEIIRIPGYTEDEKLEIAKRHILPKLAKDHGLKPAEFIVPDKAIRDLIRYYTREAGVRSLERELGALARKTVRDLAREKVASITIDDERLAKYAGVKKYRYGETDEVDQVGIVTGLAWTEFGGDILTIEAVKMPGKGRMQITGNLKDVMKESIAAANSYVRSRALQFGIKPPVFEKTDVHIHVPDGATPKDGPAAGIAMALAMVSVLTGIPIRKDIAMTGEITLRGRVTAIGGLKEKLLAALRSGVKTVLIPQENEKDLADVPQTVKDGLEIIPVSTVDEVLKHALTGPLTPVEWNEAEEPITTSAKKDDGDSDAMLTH
Experiment: pull-down

## DnaA
  binding: binds

These are yes or no findings as the source states them, for the method shown. In cells and extracts the contact can be indirect. Binding calls can cover weak binding; strength is not graded here. Tags and fused reporters may be left off the sequences shown.
